Measured values reported in the supplement of paper PMC12823440, “Inhibitors supercharge kinase turnover through native proteolytic circuits” (Nature, 2025).
This is one part of the list. The calls rarely recur for the same compound in another form.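 In K562 cells expressing nanoluciferase-fused kinases, luminescence was recorded at 4 h intervals between 2 and 18 h, normalized as percent of control with DMSO at 100% and a positive control at 0%. A significant (2 sigma) signal drop marks a time point as decreased. The authors' rule for a hit is not shown and takes in more than the number of time points.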

Chains of the proteins cited; added tags and fusions are not shown. Lines headed by an entry give the natural chain unless they say otherwise; changes in a name come on top.
UniProt Q00526: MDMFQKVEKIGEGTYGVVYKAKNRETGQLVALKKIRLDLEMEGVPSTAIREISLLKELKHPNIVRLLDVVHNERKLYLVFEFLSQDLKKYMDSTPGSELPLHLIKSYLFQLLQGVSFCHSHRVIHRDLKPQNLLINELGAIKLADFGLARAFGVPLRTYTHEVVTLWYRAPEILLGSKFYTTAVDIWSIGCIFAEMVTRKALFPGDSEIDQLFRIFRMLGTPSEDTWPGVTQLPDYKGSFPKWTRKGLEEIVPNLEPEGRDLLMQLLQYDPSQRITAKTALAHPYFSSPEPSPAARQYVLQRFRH
UniProt P41240: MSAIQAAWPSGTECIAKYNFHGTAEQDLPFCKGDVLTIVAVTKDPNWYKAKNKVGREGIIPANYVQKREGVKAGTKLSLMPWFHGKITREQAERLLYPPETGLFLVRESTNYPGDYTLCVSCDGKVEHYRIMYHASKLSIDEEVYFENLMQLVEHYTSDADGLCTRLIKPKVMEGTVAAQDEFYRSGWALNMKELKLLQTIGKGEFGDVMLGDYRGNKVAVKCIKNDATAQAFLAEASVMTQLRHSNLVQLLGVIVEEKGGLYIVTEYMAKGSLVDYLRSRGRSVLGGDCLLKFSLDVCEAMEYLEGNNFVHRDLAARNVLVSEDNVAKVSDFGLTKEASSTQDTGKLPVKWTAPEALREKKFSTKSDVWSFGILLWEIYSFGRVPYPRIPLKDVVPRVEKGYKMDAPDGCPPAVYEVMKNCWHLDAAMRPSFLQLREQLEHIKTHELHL
UniProt O96017, whole entry: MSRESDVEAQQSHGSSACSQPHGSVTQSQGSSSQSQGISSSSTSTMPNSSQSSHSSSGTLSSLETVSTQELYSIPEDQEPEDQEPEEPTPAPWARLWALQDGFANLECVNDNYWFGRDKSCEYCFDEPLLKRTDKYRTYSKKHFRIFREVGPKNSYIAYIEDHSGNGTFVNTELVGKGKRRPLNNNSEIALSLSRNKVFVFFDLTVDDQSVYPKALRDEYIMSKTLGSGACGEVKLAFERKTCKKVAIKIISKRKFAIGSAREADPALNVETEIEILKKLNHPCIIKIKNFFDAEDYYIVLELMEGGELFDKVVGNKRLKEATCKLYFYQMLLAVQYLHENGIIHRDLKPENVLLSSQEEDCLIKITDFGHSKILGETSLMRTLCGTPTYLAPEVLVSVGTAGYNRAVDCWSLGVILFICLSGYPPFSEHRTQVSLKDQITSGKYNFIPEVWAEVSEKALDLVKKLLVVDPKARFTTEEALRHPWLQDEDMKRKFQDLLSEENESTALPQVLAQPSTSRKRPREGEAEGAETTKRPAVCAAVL
UniProt P07949, whole entry, looked up: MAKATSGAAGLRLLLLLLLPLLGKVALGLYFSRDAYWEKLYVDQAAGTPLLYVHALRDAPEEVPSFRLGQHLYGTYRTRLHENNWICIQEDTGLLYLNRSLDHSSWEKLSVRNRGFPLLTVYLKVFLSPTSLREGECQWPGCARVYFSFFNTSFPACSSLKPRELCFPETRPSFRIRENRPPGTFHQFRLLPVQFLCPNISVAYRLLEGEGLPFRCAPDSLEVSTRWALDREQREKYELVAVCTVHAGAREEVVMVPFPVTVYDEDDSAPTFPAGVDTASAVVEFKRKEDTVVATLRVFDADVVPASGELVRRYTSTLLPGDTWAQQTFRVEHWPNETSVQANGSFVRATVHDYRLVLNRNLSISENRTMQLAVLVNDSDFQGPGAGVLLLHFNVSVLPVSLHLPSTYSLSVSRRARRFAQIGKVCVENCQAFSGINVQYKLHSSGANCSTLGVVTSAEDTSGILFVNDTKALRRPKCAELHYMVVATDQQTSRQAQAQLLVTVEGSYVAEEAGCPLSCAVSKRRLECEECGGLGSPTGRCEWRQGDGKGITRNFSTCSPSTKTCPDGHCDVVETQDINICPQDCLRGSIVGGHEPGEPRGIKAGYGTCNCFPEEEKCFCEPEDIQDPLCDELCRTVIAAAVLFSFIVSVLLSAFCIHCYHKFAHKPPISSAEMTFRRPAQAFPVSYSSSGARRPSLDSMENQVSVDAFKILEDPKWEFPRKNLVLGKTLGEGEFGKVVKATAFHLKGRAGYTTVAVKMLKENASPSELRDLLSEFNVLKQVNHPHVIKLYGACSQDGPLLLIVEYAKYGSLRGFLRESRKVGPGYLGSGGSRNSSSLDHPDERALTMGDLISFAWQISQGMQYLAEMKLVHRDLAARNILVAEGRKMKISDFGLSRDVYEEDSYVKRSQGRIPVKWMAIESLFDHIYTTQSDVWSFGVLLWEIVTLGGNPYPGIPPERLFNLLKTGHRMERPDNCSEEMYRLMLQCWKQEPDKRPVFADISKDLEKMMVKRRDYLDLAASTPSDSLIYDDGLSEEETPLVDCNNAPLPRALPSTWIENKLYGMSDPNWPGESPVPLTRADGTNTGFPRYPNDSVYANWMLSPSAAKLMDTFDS
UniProt P07949, whole entry M918T, looked up: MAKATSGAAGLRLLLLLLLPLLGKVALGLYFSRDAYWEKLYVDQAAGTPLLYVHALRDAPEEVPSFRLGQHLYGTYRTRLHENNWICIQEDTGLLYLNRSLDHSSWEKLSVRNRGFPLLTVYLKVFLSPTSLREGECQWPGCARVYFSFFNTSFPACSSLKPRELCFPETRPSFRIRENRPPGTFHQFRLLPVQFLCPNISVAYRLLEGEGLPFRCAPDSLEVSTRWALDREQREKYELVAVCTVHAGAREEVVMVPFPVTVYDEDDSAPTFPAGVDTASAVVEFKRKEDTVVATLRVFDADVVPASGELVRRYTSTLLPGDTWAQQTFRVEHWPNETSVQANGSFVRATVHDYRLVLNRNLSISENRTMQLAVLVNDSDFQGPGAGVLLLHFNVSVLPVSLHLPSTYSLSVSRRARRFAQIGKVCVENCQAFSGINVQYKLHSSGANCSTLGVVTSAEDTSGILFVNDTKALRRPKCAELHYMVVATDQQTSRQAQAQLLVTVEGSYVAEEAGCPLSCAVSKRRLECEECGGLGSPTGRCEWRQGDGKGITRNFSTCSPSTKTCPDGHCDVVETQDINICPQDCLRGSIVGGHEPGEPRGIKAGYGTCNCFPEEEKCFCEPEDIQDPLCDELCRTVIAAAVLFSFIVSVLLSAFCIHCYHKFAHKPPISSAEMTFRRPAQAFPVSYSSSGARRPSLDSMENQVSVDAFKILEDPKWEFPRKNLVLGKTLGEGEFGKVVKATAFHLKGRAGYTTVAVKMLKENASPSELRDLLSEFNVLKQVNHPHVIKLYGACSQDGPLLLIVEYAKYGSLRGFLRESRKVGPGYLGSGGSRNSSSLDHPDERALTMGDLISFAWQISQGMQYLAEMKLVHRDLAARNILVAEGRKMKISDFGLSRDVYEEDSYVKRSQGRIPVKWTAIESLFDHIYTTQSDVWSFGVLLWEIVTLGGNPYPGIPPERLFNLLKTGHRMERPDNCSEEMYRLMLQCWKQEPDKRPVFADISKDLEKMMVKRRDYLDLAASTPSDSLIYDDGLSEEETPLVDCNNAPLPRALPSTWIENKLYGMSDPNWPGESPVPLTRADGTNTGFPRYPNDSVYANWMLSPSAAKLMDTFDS
UniProt Q9BUB5: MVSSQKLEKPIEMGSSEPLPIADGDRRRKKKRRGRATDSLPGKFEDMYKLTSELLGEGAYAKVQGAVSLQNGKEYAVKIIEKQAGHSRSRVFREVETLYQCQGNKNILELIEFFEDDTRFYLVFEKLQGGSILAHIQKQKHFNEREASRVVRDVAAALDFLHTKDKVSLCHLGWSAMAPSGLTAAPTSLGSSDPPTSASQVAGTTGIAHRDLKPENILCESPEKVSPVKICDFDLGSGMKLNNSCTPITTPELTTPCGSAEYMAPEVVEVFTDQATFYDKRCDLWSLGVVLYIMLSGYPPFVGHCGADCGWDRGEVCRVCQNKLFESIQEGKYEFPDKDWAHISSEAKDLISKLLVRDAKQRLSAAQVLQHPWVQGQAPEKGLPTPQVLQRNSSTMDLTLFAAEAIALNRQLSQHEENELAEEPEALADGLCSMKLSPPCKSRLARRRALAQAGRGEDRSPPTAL
UniProt Q13131: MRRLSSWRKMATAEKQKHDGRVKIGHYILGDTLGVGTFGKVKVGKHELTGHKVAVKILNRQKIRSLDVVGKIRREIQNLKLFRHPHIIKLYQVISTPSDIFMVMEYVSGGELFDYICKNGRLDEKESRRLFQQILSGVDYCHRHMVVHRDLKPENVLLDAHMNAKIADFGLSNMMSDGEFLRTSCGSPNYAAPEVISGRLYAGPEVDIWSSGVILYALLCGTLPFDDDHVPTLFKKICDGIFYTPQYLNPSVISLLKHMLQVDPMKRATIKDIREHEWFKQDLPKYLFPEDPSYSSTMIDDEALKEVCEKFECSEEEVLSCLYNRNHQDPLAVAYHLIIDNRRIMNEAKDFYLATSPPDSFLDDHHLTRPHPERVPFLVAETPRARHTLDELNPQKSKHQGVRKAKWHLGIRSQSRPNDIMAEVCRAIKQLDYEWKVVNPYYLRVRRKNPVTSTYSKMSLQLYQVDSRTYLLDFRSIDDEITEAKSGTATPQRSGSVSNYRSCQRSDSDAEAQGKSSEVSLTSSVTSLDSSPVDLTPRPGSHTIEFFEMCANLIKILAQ
UniProt P51813: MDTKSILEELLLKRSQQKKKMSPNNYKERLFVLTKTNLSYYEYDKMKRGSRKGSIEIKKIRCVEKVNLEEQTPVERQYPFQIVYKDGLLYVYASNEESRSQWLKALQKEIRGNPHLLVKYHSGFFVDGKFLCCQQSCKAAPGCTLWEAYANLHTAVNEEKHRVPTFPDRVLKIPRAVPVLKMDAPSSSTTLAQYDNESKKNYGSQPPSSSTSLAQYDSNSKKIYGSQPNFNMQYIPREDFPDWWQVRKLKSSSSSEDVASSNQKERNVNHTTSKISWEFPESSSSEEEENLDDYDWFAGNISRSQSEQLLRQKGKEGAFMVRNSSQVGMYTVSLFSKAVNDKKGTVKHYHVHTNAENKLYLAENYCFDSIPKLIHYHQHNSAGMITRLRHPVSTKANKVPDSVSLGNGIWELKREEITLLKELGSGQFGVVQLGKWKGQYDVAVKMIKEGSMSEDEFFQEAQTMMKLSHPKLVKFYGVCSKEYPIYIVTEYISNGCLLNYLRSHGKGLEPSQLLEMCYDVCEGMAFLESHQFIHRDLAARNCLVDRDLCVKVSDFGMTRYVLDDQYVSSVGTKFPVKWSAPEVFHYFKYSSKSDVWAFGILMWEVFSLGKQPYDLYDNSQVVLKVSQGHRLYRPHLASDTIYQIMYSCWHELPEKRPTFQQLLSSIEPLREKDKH
UniProt O15530: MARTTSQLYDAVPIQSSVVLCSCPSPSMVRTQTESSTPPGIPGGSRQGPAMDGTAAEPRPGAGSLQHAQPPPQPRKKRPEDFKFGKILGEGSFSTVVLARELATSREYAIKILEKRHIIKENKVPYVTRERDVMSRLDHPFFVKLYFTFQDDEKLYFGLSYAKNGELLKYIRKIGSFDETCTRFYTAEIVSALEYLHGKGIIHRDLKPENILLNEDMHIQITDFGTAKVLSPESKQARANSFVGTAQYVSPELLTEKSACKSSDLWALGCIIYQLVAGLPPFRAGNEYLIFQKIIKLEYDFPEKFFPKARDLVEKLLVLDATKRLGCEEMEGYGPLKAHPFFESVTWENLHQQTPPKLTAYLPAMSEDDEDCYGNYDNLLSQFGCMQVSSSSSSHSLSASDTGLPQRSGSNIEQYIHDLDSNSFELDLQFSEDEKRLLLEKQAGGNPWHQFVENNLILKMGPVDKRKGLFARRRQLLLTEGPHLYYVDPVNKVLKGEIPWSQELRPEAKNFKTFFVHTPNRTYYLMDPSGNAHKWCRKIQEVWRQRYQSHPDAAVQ

What was measured:
Assay in all cases: number of time points (of 5) at which kinase-Nluc abundance scored as decreased, DMSO-normalised (count); higher = more persistent destabilization
Details in all cases: 10 µM; K562; 2-18 h
[1] = compound: O=C(Nc1ccncc1)Nc1ccc(-c2nc(N3CCOCC3)nc(N3C4CCC3COC4)n2)cc1
Larotrectinib sulfate = compound: O=C(Nc1cnn2ccc(N3CCC[C@@H]3c3cc(F)ccc3F)nc12)N1CC[C@H](O)C1 [Larotrectinib sulfate]
Larotrectinib = compound: O=C(Nc1cnn2ccc(N3CCC[C@@H]3c3cc(F)ccc3F)nc12)N1CC[C@H](O)C1 [Larotrectinib]
[2] = compound: O=C(O)c1ccc2c(c1)nc(Nc1cccc(Cl)c1)c1ccncc12 [Silmitasertib (sodium salt)]
Silmitasertib = compound: O=C(O)c1ccc2c(c1)nc(Nc1cccc(Cl)c1)c1ccncc12 [Silmitasertib]
[3] = compound: O=C(c1ccc(F)c(F)c1Nc1ccc(I)cc1F)N1CC(O)([C@@H]2CCCCN2)C1 [Cobimetinib (hemifumarate)]
Cobimetinib = compound: O=C(c1ccc(F)c(F)c1Nc1ccc(I)cc1F)N1CC(O)([C@@H]2CCCCN2)C1 [Cobimetinib]
[4] = compound: O=C(c1nn(-c2ccc(CN3CCOCC3)cc2)c2c1CS(=O)(=O)c1c(F)cccc1-2)N1CCOCC1
(E/Z)-GSK-3β inhibitor 1 = compound: O=C1Nc2ccccc2/C1=C/c1ccccn1 [(E/Z)-GSK-3β inhibitor 1]
GSK-3β inhibitor 1 = compound: O=C1Nc2ccccc2/C1=C/c1ccccn1 [GSK-3β inhibitor 1]

Target | number of time points [1] | number of time points (Larotrectinib sulfate) | number of time points (Larotrectinib) | number of time points [2] | number of time points (Silmitasertib) | number of time points [3] | number of time points (Cobimetinib) | number of time points [4] | number of time points ((E/Z)-GSK-3β inhibitor 1) | number of time points (GSK-3β inhibitor 1)
FGFR1 (UniProt P11362) | 5 | 0 | 0 | 2 | 0 | 0 | 0 | 0 | 0 | 0
CSNK1A1 (UniProt P48729) | 0 | 0 | 0 | 2 | 4 | 0 | 0 | 0 | 0 | 0
PTK2 (UniProt Q05397) | 3 | 0 | 0 | 1 | 3 | 1 | 0 | 0 | 0 | 0
EGFR (UniProt P00533) | 0 | 0 | 0 | 1 | 3 | 0 | 0 | 0 | 0 | 0
ABL1 (UniProt P00519) | 5 | 0 | 0 | 5 | 0 | 2 | 2 | 0 | 0 | 0
CDK3 (UniProt Q00526) | 0 | 2 | 0 | 0 | 0 | 0 | 0 | 0 | 0 | 0
EGFR_L718V (UniProt P00533) | 0 | 0 | 0 | 1 | 0 | 1 | 0 | 0 | 0 | 0
TYK2 (UniProt P29597) | 0 | 0 | 0 | 3 | 5 | 0 | 0 | 0 | 0 | 0
PAK4 (UniProt O96013) | 0 | 0 | 0 | 0 | 0 | 0 | 0 | 0 | 0 | 0
CSK (UniProt P41240) | 0 | 0 | 0 | 0 | 0 | 0 | 0 | 0 | 0 | 0
CHEK2 (UniProt O96017) | 0 | 0 | 0 | 2 | 0 | 1 | 0 | 0 | 0 | 0
DYRK2 (UniProt Q92630) | 0 | 0 | 0 | 4 | 0 | 3 | 3 | 0 | 0 | 0
FGFR2 (UniProt P21802) | 3 | 0 | 0 | 3 | 0 | 2 | 2 | 0 | 0 | 0
CAMK2A (UniProt Q9UQM7) | 0 | 0 | 0 | 0 | 0 | 0 | 0 | 0 | 0 | 0
RET (UniProt P07949) | 0 | 0 | 0 | 2 | 0 | 0 | 0 | 0 | 0 | 0
ERN1 (UniProt O75460) | 0 | 0 | 0 | 2 | 0 | 0 | 0 | 0 | 0 | 0
NTRK3 (UniProt Q16288) | 4 | 0 | 0 | 2 | 0 | 0 | 0 | 0 | 0 | 0
MAPK1 (UniProt P28482) | 0 | 0 | 0 | 0 | 0 | 0 | 0 | 0 | 0 | 0
MAP2K2 (UniProt P36507) | 0 | 0 | 0 | 0 | 0 | 0 | 0 | 0 | 0 | 0
CDK6 (UniProt Q00534) | 0 | 0 | 0 | 0 | 0 | 0 | 0 | 0 | 0 | 0
RPS6KA1 (UniProt Q15418) | 0 | 0 | 0 | 0 | 0 | 0 | 0 | 0 | 0 | 0
MKNK1 (UniProt Q9BUB5) | 0 | 0 | 0 | 3 | 0 | 0 | 3 | 0 | 0 | 0
DDR1 (UniProt Q08345) | 3 | 0 | 0 | 0 | 0 | 1 | 1 | 0 | 0 | 0

Target | number of time points [1] | number of time points (Larotrectinib sulfate) | number of time points (Larotrectinib) | number of time points [2] | number of time points (Silmitasertib) | number of time points [3] | number of time points (Cobimetinib) | number of time points [4] | number of time points ((E/Z)-GSK-3β inhibitor 1) | number of time points (GSK-3β inhibitor 1)
PTK2B (UniProt Q14289) | 0 | 0 | 0 | 2 | 0 | 2 | 0 | 0 | 0 | 0
RIOK1 (UniProt Q9BRS2) | 0 | 0 | 0 | 3 | 0 | 2 | 0 | 0 | 0 | 0
ALK (UniProt Q9UM73) | 0 | 0 | 0 | 2 | 0 | 0 | 2 | 0 | 0 | 0
STK24 (UniProt Q9Y6E0) | 0 | 0 | 0 | 0 | 0 | 0 | 0 | 0 | 0 | 0
SYK (UniProt P43405) | 0 | 0 | 0 | 0 | 0 | 0 | 0 | 0 | 0 | 0
TEC (UniProt P42680) | 0 | 0 | 0 | 2 | 0 | 0 | 0 | 0 | 0 | 0
ERBB3 (UniProt P21860) | 0 | 0 | 0 | 4 | 0 | 3 | 2 | 0 | 0 | 0
NTRK2 (UniProt Q16620) | 0 | 0 | 0 | 1 | 0 |  | 0 | 0 | 0 | 0
MAP2K1 (UniProt Q02750) | 0 | 0 | 0 | 0 | 0 | 0 | 0 | 0 | 0 | 0
PRKAA1 (UniProt Q13131) | 0 | 0 | 0 | 2 | 0 | 2 | 1 | 0 | 0 | 0
PRKCA (UniProt P17252) | 0 | 0 | 0 | 0 | 0 | 0 | 0 | 0 | 0 | 0
LIMK1 (UniProt P53667) | 4 | 0 | 0 | 2 | 0 | 2 | 2 | 0 | 0 | 0
EPHA2 (UniProt P29317) | 0 | 0 | 0 | 0 | 1 | 1 | 0 | 0 | 0 | 0
MAPK4 (UniProt P31152) | 0 | 0 | 0 | 0 | 0 | 0 | 0 | 0 | 0 | 0
BMX (UniProt P51813) | 0 | 0 | 0 | 3 | 4 | 1 | 1 | 0 | 0 | 0
ZAK (UniProt Q9NYL2) | 0 | 0 | 0 | 1 | 0 | 0 | 0 | 0 | 0 | 0
MAP4K2 (UniProt Q12851) | 0 | 0 | 0 | 0 | 0 | 0 | 0 | 0 | 0 | 0
EGFR_G719S_T790M (UniProt P00533) | 0 | 0 | 0 | 3 | 0 | 2 | 1 | 0 | 0 | 0
CDK2 (UniProt P24941) | 0 | 0 | 0 | 0 | 0 | 0 | 0 | 0 | 0 | 0
RET_M918T (clone: RET_mut) (UniProt P07949) | 4 | 0 | 0 | 3 | 0 | 0 | 0 | 0 | 0 | 0
PDPK1 (UniProt O15530) | 0 | 0 | 0 | 4 | 0 | 0 | 2 | 0 | 0 | 0
ROR2 (UniProt Q01974) | 0 | 0 | 0 | 0 | 0 | 0 | 0 | 0 | 0 | 0
RIPK1 (UniProt Q13546) | 1 | 0 | 0 | 3 | 0 | 1 | 0 | 0 | 0 | 0

Complete entries from above. Values in the order: number of time points [1]	number of time points (Larotrectinib sulfate)	number of time points (Larotrectinib)	number of time points [2]	number of time points (Silmitasertib)	number of time points [3]	number of time points (Cobimetinib)	number of time points [4]	number of time points ((E/Z)-GSK-3β inhibitor 1)	number of time points (GSK-3β inhibitor 1)
MAP4K2 (UniProt Q12851) is entered as 0	0	0	0	0	0	0	0	0	0
TEC (UniProt P42680) is entered as 0	0	0	2	0	0	0	0	0	0
BMX (UniProt P51813) is entered as 0	0	0	3	4	1	1	0	0	0
